Values quoted from earlier work in patent US9861685B2, “Methods of treating hemoglobinopathies” (Duke University, priority 2012, dated 2018).
At least one compound was matched to its structure with a doubt left.

Test system: ERK1/2
Details: see WO 2012/149547; cited from earlier work

C=C[C@@]1(C)CC(=O)[C@]2(O)[C@@]3(C)[C@@H](O)CCC(C)(C)[C@@H]3[C@H](O)[C@H](OC(C)=O)[C@@]2(C)O1 [forskolin]
ERK phosphorylation/activation in normal RBCs: fails to become phosphorylated/activated
